Record: PubChem BioAssay AID686937 (Drosophila RNAi Screening Center, 2013)
Screen: 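Knock-downs that reduce output of a secreted reporter enzyme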 (primary screen). Cell system: Drosophila S2 cells expressing secreted horseradish peroxidase. Reagent: long dsRNA against Drosophila genes. Duration: about 5.5 days (5 days dsRNA, then 12 h reporter induction). Challenge: reporter expression induced after 5 days of dsRNA, read 12 h later; inducer not stated. Detection: 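Chemiluminescent measurement of peroxidase in the medium 12 h after reporter induction, following 5 days of dsRNA, given as a z-score per plate; higher means more secretion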. Reading the numbers: z-score: higher = more reporter secreted into medium.
The screen tested about 23,000 reagents; below is a random part of those with a known target gene and a result. 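Reduced-secretion tags in replicate 1 do not always agree with the z-scores; no criterion for assigning the tags was given.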 A plus sign joins genes that one reagent is predicted to hit. Not all columns of the deposit are shown. The record does not give: the amount of reagent.

With nonC [DRSC18366], what was measured?
z-score, replicate 1: 0.63

What did the screen give for nonC [DRSC18367]?
z-score, replicate 1: 0.19

For CG18661 [DRSC02690], what does the deposit list?
z-score, replicate 1: 0.53

What is on record for Liprin-gamma [DRSC04093]?
z-score, replicate 1: 0.82

What is on record for CG7560 [DRSC10879]?
z-score, replicate 1: 0.5

How did the screen score CG14984 [DRSC08442]?
z-score, replicate 1: 0.17

How did the screen score idc [DRSC15680]?
z-score, replicate 1: 0.39

For Or67c [DRSC11242], what does the deposit list?
z-score, replicate 1: 0.57

With atk [DRSC11418], how do the results read?
z-score, replicate 1: -0.81

What is on record for atk [DRSC11769]?
z-score, replicate 1: 0.33

For Rab5 [DRSC00777], what was measured?
z-score, replicate 1: 0.16

With CG8100 [DRSC10961], what does the deposit list?
z-score, replicate 1: 0.44

For Acp26Aa [DRSC01855], what does the deposit list?
z-score, replicate 1: -0.14

What did the screen give for dpr18 [DRSC19606]?
z-score, replicate 1: -0.05

How did the screen score Idi [DRSC15918]?
z-score, replicate 1: 0.26

What did the screen give for CG7675 [DRSC16280]?
z-score, replicate 1: 0.24

Which result is listed for CG5989 [DRSC10565]?
z-score, replicate 1: 0.14

In a second layout: results already given
| gene knocked down | DRSC id | z-score, replicate 1 |
| --- | --- | --- |
| Liprin-gamma | DRSC04093 | 0.82 |
| CG7560 | DRSC10879 | 0.5 |
| CG14984 | DRSC08442 | 0.17 |
| idc | DRSC15680 | 0.39 |
| Or67c | DRSC11242 | 0.57 |
| atk | DRSC11418 | -0.81 |
| atk | DRSC11769 | 0.33 |

Next reagents follow.
Which result is listed for pim [DRSC03591]?
z-score, replicate 1: -1.89

What is on record for CG15877 [DRSC08485]?
z-score, replicate 1: -0.02

For CG4306 [DRSC10409], how do the results read?
z-score, replicate 1: 0.02

For OS9 + Hf [DRSC03392], how do the results read?
z-score, replicate 1: 0.38

What did the screen give for CG34309 [DRSC14838]?
z-score, replicate 1: 0.11

With eEF1alpha1 [DRSC07421], what does the deposit list?
z-score, replicate 1: -2.52

How did the screen score CG15269 [DRSC01942]?
z-score, replicate 1: 0.08

For row [DRSC07076], what does the deposit list?
z-score, replicate 1: 0.43

What is on record for row [DRSC07077]?
z-score, replicate 1: -0.89

With CG7148 [DRSC11802], what does the deposit list?
z-score, replicate 1: 0.57

How did the screen score CG8788 [DRSC07267]?
z-score, replicate 1: 0.11

With tomboy40 [DRSC04918], what was measured?
z-score, replicate 1: -0.01

For Rsf1 [DRSC03423], how do the results read?
z-score, replicate 1: -0.43

What is on record for Rsf1 [DRSC21953]?
z-score, replicate 1: 0.11

For slim [DRSC06921], how do the results read?
z-score, replicate 1: 0.31

For CG30369 [DRSC21996], how do the results read?
z-score, replicate 1: 0.03

What did the screen give for Ir75a [DRSC10188]?
z-score, replicate 1: 0.2

What did the screen give for RpL8 [DRSC08532]?
z-score, replicate 1: -3.41

With RpL8 [DRSC08695], how do the results read?
z-score, replicate 1: -5.05

For ND-B14 [DRSC07029], what was measured?
z-score, replicate 1: -0.31

With rswl [DRSC06923], what was measured?
z-score, replicate 1: 0.29

How did the screen score CG8249 [DRSC07125]?
z-score, replicate 1: 0.45

For hbn [DRSC04082], what was measured?
z-score, replicate 1: -1.34

How did the screen score hbn [DRSC04238]?
z-score, replicate 1: -0.05

With hbn [DRSC04239], what was measured?
z-score, replicate 1: 0.13

For hbn [DRSC22436], how do the results read?
z-score, replicate 1: 0.15

With CG5174 [DRSC06920], what was measured?
z-score, replicate 1: -2.85

What did the screen give for kat80 [DRSC20344]?
z-score, replicate 1: 0.38

What is on record for kat80 [DRSC20345]?
z-score, replicate 1: 0.3

What is on record for Dph1 [DRSC09851]?
z-score, replicate 1: -0.5

For CG15429 [DRSC00444], what was measured?
z-score, replicate 1: 0.45

What did the screen give for Caf1-105 [DRSC06209]?
z-score, replicate 1: 0.36

What did the screen give for pkm [DRSC19674]?
z-score, replicate 1: 0.02

For CG3955 [DRSC06859], what was measured?
z-score, replicate 1: 0.13
